# PubChem BioAssay AID1508597 – Cure First, 2020
# Purpose: 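Genes whose silencing sensitises or protects ovarian cancer cells against rucaparib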 (primary screen)
# System: human ovarian carcinoma lines grown from tumours: OCI-P5x (papillary serous) and OCI-C5x (clear cell)
# Reagent: siRNA pool against human genes, 1.25 pmol siRNA per well
# Timing: 72 h or 96 h, depending on the cell culture
# Challenge: rucaparib 20 µM (about IC30) or vehicle, present until read-out
# Detection: 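Luminescent ATP-based viability assay read 72 or 96 h after transfection, depending on culture, given as normalised percent viability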
# Reading the numbers: viability, normalised: higher = more viable cells remaining
# Rule for the call: 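a well counts as a hit if its normalised viability is under 80 percent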
# Calls: active = viability under 80%; inactive = viability 80% or more
# In all, the deposit lists about 2,100 reagents; below is a random part of them. 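Calls flag viability under 80% in either arm, not effects specific to rucaparib; the reference for percent is not stated.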 Some reagents were tested in more than one well and are listed for each. Not given: the 100% reference.
The opening 5 entries, ahead of the listing:
"viability, normalised (%)",activity call,Gene,rucaparib or vehicle,cell line,technical replicate
41.7,active,SALL1,Rucaparib,OCI-C5x (clear cell),1
44.8,active,SALL1,Rucaparib,OCI-C5x (clear cell),2
33.6,active,SALL1,Rucaparib,OCI-C5x (clear cell),3
51.1,active,SALL1,Rucaparib,OCI-P5x (serous),1
50.1,active,SALL1,Rucaparib,OCI-P5x (serous),2

Results, repeating the preview:
"viability, normalised (%)",activity call,Gene,rucaparib or vehicle,cell line,technical replicate
41.7,active,SALL1,Rucaparib,OCI-C5x (clear cell),1
44.8,active,SALL1,Rucaparib,OCI-C5x (clear cell),2
33.6,active,SALL1,Rucaparib,OCI-C5x (clear cell),3
51.1,active,SALL1,Rucaparib,OCI-P5x (serous),1
50.1,active,SALL1,Rucaparib,OCI-P5x (serous),2
51.1,active,SALL1,Rucaparib,OCI-P5x (serous),3
53.5,active,SALL1,Vehicle,OCI-C5x (clear cell),1
45.9,active,SALL1,Vehicle,OCI-C5x (clear cell),2
68.8,active,SALL1,Vehicle,OCI-C5x (clear cell),3
60,active,SALL1,Vehicle,OCI-P5x (serous),1
66.1,active,SALL1,Vehicle,OCI-P5x (serous),2
76.4,active,SALL1,Vehicle,OCI-P5x (serous),3
48,active,BAP1,Rucaparib,OCI-C5x (clear cell),1
52.2,active,BAP1,Rucaparib,OCI-C5x (clear cell),1
48.5,active,BAP1,Rucaparib,OCI-C5x (clear cell),2
65.3,active,BAP1,Rucaparib,OCI-C5x (clear cell),2
41.2,active,BAP1,Rucaparib,OCI-C5x (clear cell),3
50.3,active,BAP1,Rucaparib,OCI-C5x (clear cell),3
56.9,active,BAP1,Rucaparib,OCI-P5x (serous),1
91.9,inactive,BAP1,Rucaparib,OCI-P5x (serous),1
110,inactive,BAP1,Rucaparib,OCI-P5x (serous),2
69.6,active,BAP1,Rucaparib,OCI-P5x (serous),2
79.5,active,BAP1,Rucaparib,OCI-P5x (serous),3
99.6,inactive,BAP1,Rucaparib,OCI-P5x (serous),3
116,inactive,BAP1,Vehicle,OCI-C5x (clear cell),1
30.9,active,BAP1,Vehicle,OCI-C5x (clear cell),1
29.6,active,BAP1,Vehicle,OCI-C5x (clear cell),2
45.2,active,BAP1,Vehicle,OCI-C5x (clear cell),2
30.2,active,BAP1,Vehicle,OCI-C5x (clear cell),3
49.7,active,BAP1,Vehicle,OCI-C5x (clear cell),3
67.8,active,BAP1,Vehicle,OCI-P5x (serous),1
69.1,active,BAP1,Vehicle,OCI-P5x (serous),1
80,active,BAP1,Vehicle,OCI-P5x (serous),2
76.2,active,BAP1,Vehicle,OCI-P5x (serous),2
68.7,active,BAP1,Vehicle,OCI-P5x (serous),3
65.4,active,BAP1,Vehicle,OCI-P5x (serous),3
75,active,KMT5B,Rucaparib,OCI-C5x (clear cell),1
74.4,active,KMT5B,Rucaparib,OCI-C5x (clear cell),2
66.8,active,KMT5B,Rucaparib,OCI-C5x (clear cell),3
57.8,active,KMT5B,Rucaparib,OCI-P5x (serous),1
65.7,active,KMT5B,Rucaparib,OCI-P5x (serous),2
68.2,active,KMT5B,Rucaparib,OCI-P5x (serous),3
58,active,KMT5B,Vehicle,OCI-C5x (clear cell),1
62.5,active,KMT5B,Vehicle,OCI-C5x (clear cell),2
70.3,active,KMT5B,Vehicle,OCI-C5x (clear cell),3
76,active,KMT5B,Vehicle,OCI-P5x (serous),1
73.6,active,KMT5B,Vehicle,OCI-P5x (serous),2
55.3,active,KMT5B,Vehicle,OCI-P5x (serous),3
33.3,active,RAI1,Rucaparib,OCI-C5x (clear cell),1
36.7,active,RAI1,Rucaparib,OCI-C5x (clear cell),2
42.1,active,RAI1,Rucaparib,OCI-C5x (clear cell),3
45.2,active,RAI1,Rucaparib,OCI-P5x (serous),1
53.9,active,RAI1,Rucaparib,OCI-P5x (serous),2
50.4,active,RAI1,Rucaparib,OCI-P5x (serous),3
35,active,RAI1,Vehicle,OCI-C5x (clear cell),1
27.9,active,RAI1,Vehicle,OCI-C5x (clear cell),2
29.6,active,RAI1,Vehicle,OCI-C5x (clear cell),3
64.1,active,RAI1,Vehicle,OCI-P5x (serous),1
71.3,active,RAI1,Vehicle,OCI-P5x (serous),2
70.9,active,RAI1,Vehicle,OCI-P5x (serous),3
